# Measured values as given in PubChem BioAssay AID1688 (National Center for Advancing Translational Sciences (NCATS), 2009).
# About 2,400 (1.1%) of roughly 220,000 compounds were called active. The shares of active, inactive and inconclusive entries below differ from those in the screen. The call rests on the fitted dose curve; in most records, active means well fitted inhibition curve with a large enough effect; inconclusive means small, poorly fitted or top-dose-only effect, or effect the other way; inactive means no such curve, though single readings can be large or run the other way. Where the call is inconclusive, the potency comes from a doubtful curve fit.
# Experiment: qHTS Multiplex Assay to Identify Dual Action Probes in a Cell Model of Huntington: Aggregate Formation (GFP); further: nearly all actives have a fitted effect of over 60% in size
# Conditions: PC12 HttQ103-GFP aggregates, Acumen cytometry, 40 h; activity change, negative = inhibition: at 46.1 µM (top of the series) unless noted
# How it was run: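 Compounds (qHTS titration) were added to PC12 cells expressing an ecdysone-driven HTT exon 1 Q103–GFP fusion after induction with 100 nM tebufenozide. Aggregate formation was measured as GFP objects in cell lysates.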
# On the % scale 0 is the no-effect control and ±100 the full control effect; potency means the concentration at half of the fitted maximal effect.
SMILES,Potency,"activity change, negative = inhibition"
Cc1ccc([N+](=O)[O-])cc1N=Cc1ccc(Br)s1,"inconclusive: 35.5 µM [inhibitor, single point]",–
Cc1[nH]n(-c2cccc3ccccc23)c(=O)c1/C=N/NC(=O)c1cccc([N+](=O)[O-])c1,active: 10 µM,–
CC(C)Cn1c(N)c(C(=O)CSc2ccccc2)c(=O)n(C)c1=O,"inconclusive: 35.5 µM [inhibitor, single point]",–
O=C(Nc1ccccc1Cl)N1CCN(C/C=C/c2ccccc2)CC1,–,inactive: -0.873%
Cc1cccc(-c2nc(CSCC(=O)N3CCN(c4ccccn4)CC3)c(C)o2)c1,"inconclusive: 11.2 µM [inhibitor, single point]",–
O=C(CSc1nnnn1-c1cccc2ccccc12)Nc1ccc(N2CCOCC2)c(Cl)c1,"inconclusive: 1.58 µM [activator, partial curve]",–
CCc1ccc(-n2cc(-c3ccc(F)cc3)[n+]3c2SCCC3)cc1,"inconclusive: 7.08 µM [inhibitor, partial curve]",–
CCOC(=O)c1ccc(NC(=S)N(CCCN2CCN(CC)CC2)Cc2cccs2)cc1,–,inactive: 7.22%
COC(=O)c1ccc(CO/N=C/c2ccc(OC)cc2)o1,–,inactive: 7.38%
OCCNc1ncnc2c1sc1nc(N3CCOCC3)c3c(c12)CCC3,"inconclusive: 35.5 µM [activator, single point]",–
CSc1snc(SCC(N)=O)c1C#N,"inconclusive: 35.5 µM [inhibitor, single point]",–
CC(OC(=O)c1cccs1)C(=O)NCc1ccco1 (stereo not drawn),–,inactive: -13.6%
COc1ccc(NC(=S)NNc2ccc([N+](=O)[O-])cc2S(=O)(=O)Nc2ccc(C)cc2C)cc1,"inconclusive: 35.5 µM [inhibitor, single point]",–
CC(Sc1nc2cc([N+](=O)[O-])ccc2n1-c1cccc(C(F)(F)F)c1)C(=O)NC(N)=O (stereo not drawn),–,inactive: 23.7%
N#CC1=C(N)C(C#N)(C#N)C(c2cccnc2)C2CN(C(=O)OCc3ccccc3)CC=C12 (stereo not drawn),"inconclusive: 5.62 µM [inhibitor, single point]",–
Cc1cccc2sc(NC(=O)CCNS(=O)(=O)c3cccs3)nc12,"inconclusive: 25.1 µM [inhibitor, single point]",–
COc1ccc(S(=O)(=O)CCC(=O)O)cc1,active: 2.24 µM,–
CCC(=O)Nc1cc(C)c(NC(=O)CCc2ccccc2)cn1,"inconclusive: 7.94 µM [activator, full curve, poor fit]",–
CCN(CC)CCCNC(=O)c1ccc(N2CCCCC2)c(NS(=O)(=O)c2ccc(C)cc2)c1,"inconclusive: 25.1 µM [inhibitor, single point]",–
CCCCC(=O)Nc1cc(C(=O)NCCc2ccccc2)ccc1Cl,"inconclusive: 6.31 µM [activator, single point]",–
CO/N=C(\c1nonc1N)N1CCN(c2ccc(Cl)cc2[N+](=O)[O-])CC1,"inconclusive: 35.5 µM [inhibitor, single point]",–
N#Cc1c(NC(=O)CN2CCN(C(=O)c3ccco3)CC2)sc2c1CCCCC2,"inconclusive: 15.8 µM [inhibitor, single point]",–
N#Cc1cc2c(nc1SCc1cccnc1)CCCC2,–,inactive: -6.66%

SMILES,Potency,"activity change, negative = inhibition"
O=C(CCCCCNC(=O)c1ccccc1)N/N=C/c1ccc(O)cc1O,–,inactive: -30.8%
CCCCCCn1c(=O)c(Cc2ccccc2)c(O)c2ccccc21,"inconclusive: 3.16 µM [inhibitor, full curve]",–
O=C1C2C3c4ccccc4C(c4ccccc43)C2C(=O)N1Cc1ccco1 (stereo not drawn),–,inactive: 12.3%
CCN(c1ccc(NC(=O)COC(=O)c2ccc(C)c(S(=O)(=O)N3CCOCC3)c2)cc1)C(C)C,"inconclusive: 5.62 µM [activator, single point]",–
NNS(=O)(=O)c1ccc(N2CCCC2=O)c([N+](=O)[O-])c1,"inconclusive: 31.6 µM [activator, partial curve]",–
CCOC(=O)N1CCN(C(=O)c2oc(=O)c3ccccc3c2-c2ccc(C)cc2)CC1,–,inactive: 1.56%
CN1C(=O)/C(=N\OC(=O)c2cccc3ccccc23)c2ccccc21,–,inactive: 3.18%
CN1CCN(S(=O)(=O)c2ccc(Sc3nnnn3-c3ccccc3)c([N+](=O)[O-])c2)CC1,active: 11.2 µM,–
Cc1ccc(OC2=NS(=O)(=O)c3ccccc32)cc1,"inconclusive: 0.562 µM [inhibitor, partial curve, poor fit]",–
CC(C)C(c1nnnn1Cc1cccs1)N1CCN(C2CCCC2)CC1 (stereo not drawn),"inconclusive: 0.562 µM [inhibitor, full curve, poor fit]",–
CCN1CCN(CC(=O)c2cc(Cl)ccc2Cl)CC1,–,inactive: 1.61%
C=CCn1c(=N)n(CC(O)c2ccco2)c2ccccc21 (stereo not drawn),"inconclusive: 6.31 µM [activator, single point]",–
Cc1ccc(-n2c(N)c(C(=O)Nc3c(C)n(C)n(-c4ccccc4)c3=O)c3nc4ccccc4nc32)cc1C,"inconclusive: 35.5 µM [inhibitor, single point]",–
COc1ccc(-c2nc(-c3cccc([N+](=O)[O-])c3O)cc(=O)o2)cc1OC,–,inactive: -0.532%
CN(Cc1ccc(F)cc1)C(=O)c1ccc2c(c1)NC(=O)CS2,"inconclusive: 10 µM [activator, partial curve]",–
CCN(CC)CCCNC(=O)c1cc(-c2ccc(Cl)c(Cl)c2)on1,"inconclusive: 35.5 µM [inhibitor, single point]",–
c1ccc(-n2cnc3cc(NCc4ccncc4)ccc32)cc1,"inconclusive: 3.16 µM [inhibitor, partial curve]",–
N=c1c2c(-c3ccccc3)c(-c3ccccc3)n(Cc3ccco3)c2ncn1CCN1CCOCC1,"inconclusive: 1 µM [activator, single point]",–
O=C(NCc1ccco1)c1cc2sccc2n1Cc1ccccc1,"inconclusive: 15.8 µM [inhibitor, single point]",–
COc1ccc(COC(=O)c2ccc(N3CCCC3=O)cc2)cc1F,–,inactive: -6.31%
O=C(O)c1cc(C(=O)O)cc(-c2ccc(/C=c3/sc4nc5ccccc5n4c3=O)o2)c1,–,inactive: 15.3%
CCOc1ccc(Nc2cc(=O)oc3ccccc23)cc1,"inconclusive: 6.31 µM [inhibitor, partial curve]",–
COc1ccccc1NS(=O)(=O)c1cc(NC(=O)Nc2ccccc2)ccc1N1CCCCC1,"inconclusive: 7.94 µM [activator, partial curve, poor fit]",–

SMILES,Potency,"activity change, negative = inhibition"
CC(=O)Nc1ccc(S(=O)(=O)NCc2ccc3c(c2)cc(C)n3C)cc1,"inconclusive: 12.6 µM [inhibitor, partial curve]",–
Cc1cc(C)c(-c2csc(NC(=O)C3=NN(c4ccccc4)C(=O)CC3)n2)c(C)c1,"inconclusive: 7.08 µM [inhibitor, partial curve]",–
Cc1cccc(N=C2Sc3nc4c(C)c(C)ccc4cc3CN2CCN2CCOCC2)c1,"inconclusive: 35.5 µM [inhibitor, single point]",–
Clc1ccc(COc2cccc(CNCc3ccncc3)c2)cc1,"inconclusive: 10 µM [inhibitor, single point]",–
[O-]/C(=C(\C(=S)Nc1ccc(SC(F)F)cc1)[n+]1cccc(CO)c1)c1ccc(Cl)s1,"inconclusive: 3.16 µM [activator, partial curve]",–
CCCCN1C(=O)/C(=C/C=C2\N(C)c3ccccc3C2(C)C)SC1=S,active: 12.6 µM,–
Cc1cc(-n2c(SCc3ccccc3F)nc3n[nH]c(C)c3c2=N)ccc1Cl,"inconclusive: 22.4 µM [inhibitor, single point]",–
COc1cc(C(=O)NCc2nnc(SCC(=O)Nc3nc4ccc(C)cc4s3)o2)cc(OC)c1OC,"inconclusive: 2.82 µM [activator, partial curve]",–
COc1cc(N2CCCC2)c(OC)cc1/C=c1/sc2nc3ccccc3n2c1=O,–,inactive: -2.87%
CC1=C(C#N)C(NC(=O)C2CC2)(C(F)(F)F)C(=O)N1 (stereo not drawn),active: 0.316 µM,–
O=[N+]([O-])c1ccc(NC(=S)NCCc2ccc(F)cc2)cc1,"inconclusive: 25.1 µM [inhibitor, single point]",–
CCCN1Cc2cccc(C(N)=O)c2C1=O,"inconclusive: 0.282 µM [inhibitor, partial curve, poor fit]",–
CC(C)c1ccccc1-n1cc[nH]c1=S,–,inactive: 21.5%
O=C(c1ccco1)N1CCN(c2ncnc3c(-c4ccccc4)nsc23)CC1,"inconclusive: 35.5 µM [inhibitor, single point]",–
O=C(CNC(=O)c1ccccc1)N/N=C/c1ccc([N+](=O)[O-])s1,"inconclusive: 12.6 µM [inhibitor, partial curve]",–
O=C(N/N=C/c1cn(-c2cccs2)nc1-c1ccccc1)c1ccccc1Cl,"inconclusive: 35.5 µM [inhibitor, single point]",–
Cc1ccccc1NC(=S)NCCSc1ccc(Cl)cc1,"inconclusive: 17.8 µM [inhibitor, single point]",–
COc1cc(Br)cc(/C=N/NC(=O)Cc2ccc(C(F)(F)F)cc2[N+](=O)[O-])c1O,"inconclusive: 3.16 µM [inhibitor, single point]",–
COc1ccc(/C=N/Nc2nnc(C)n2N)cc1OC,"inconclusive: 15.8 µM [inhibitor, single point]",–
CCCOc1ccc(CNC(=O)Cn2c(=O)oc3ccccc32)cc1,"inconclusive: 35.5 µM [activator, single point]",–
O=C1CC(O)(C(F)F)Oc2ccc3ccccc3c21 (stereo not drawn),"inconclusive: 35.5 µM [inhibitor, single point]",–
CSC1=NSC2=NC(=O)/C(=C/c3coc4ccccc4c3=O)C(=N)N12,–,inactive: 27.7%

# Copied from the list.
# Value for CC(=O)Nc1ccc(S(=O)(=O)NCc2ccc3c(c2)cc(C)n3C)cc1 under Potency: inconclusive: 12.6 µM [inhibitor, partial curve]
# Value for COc1cc(Br)cc(/C=N/NC(=O)Cc2ccc(C(F)(F)F)cc2[N+](=O)[O-])c1O under Potency: inconclusive: 3.16 µM [inhibitor, single point]
# Value for Cc1ccccc1NC(=S)NCCSc1ccc(Cl)cc1 under Potency: inconclusive: 17.8 µM [inhibitor, single point]
# Value for Cc1cc(C)c(-c2csc(NC(=O)C3=NN(c4ccccc4)C(=O)CC3)n2)c(C)c1 under Potency: inconclusive: 7.08 µM [inhibitor, partial curve]
